This is one part of the list.
Each compound was assayed on SARS-CoV-2 3_SL1+2 RNA (assay: NMR binding call after quantification (hit when 2 of 3 NMR criteria are met) (binary (1 = binding, 0 = not binding)); higher = binding). Settings: RNA concentration 10 µM; fragment concentration 200 µM; 293 K.

Row | Structure (SMILES) | NMR binding call
1 | COc1ccc(C)cc1NC(=O)CN.Cl | 0
2 | COCc1nnc(N)s1 | 0
3 | C(#Cc1ccccc1)CN1CCCCC1 | 0
4 | Nc1ccc(S(=O)(=O)Nc2ccccn2)cc1 | 0
5 | COc1ccc(CNC(=O)CC#N)cc1 | 0
6 | OC1CN(C(c2ccccc2)c2ccccc2)C1 | 0
7 | CC1CC1C(=O)NCCc1ccc(Cl)cc1 (stereo not given) | 0
8 | O=C(COc1ccc(F)cc1)N1CCCC1 | 0
9 | CCNC(=O)c1c[nH]nn1 | 0
10 | OCC1CN(Cc2ccccc2)CCO1 (stereo not given) | 0
11 | CC(=O)NC(C)c1nnc2ccccn12 (stereo not given) | 0
12 | CN1CCN(C(=O)CO)CC1 | 0
13 | CCOC(=O)CN1CCS(=O)(=O)CC1 | 0
14 | NC(=O)c1ccc(NC(=O)c2cnccn2)cc1 | 0
15 | Cl.NC1CCCN(C(=O)CCC(F)(F)F)C1 (stereo not given) | 0
16 | O=c1[nH]cc(N2CCCCC2)c(=O)[nH]1 | 0
17 | Cn1nc(C(N)=O)c2ccccc21 | 0
18 | Cc1ccsc1CNC(C)(C)CO | 0
19 | CN(CC(=O)O)C(=O)c1ccc(F)cc1 | 0
20 | CNC(=O)c1nc2ccccc2c(=O)[nH]1 | 0

Row | Structure (SMILES) | NMR binding call
21 | CC(=O)NCCc1ccc(S(N)(=O)=O)cc1 | 0
22 | Cc1cccc(Nc2ncnc3c2cnn3C)c1 | 0
23 | COCC(=O)Nc1nc(-c2ccccc2)cs1 | 0
24 | Cc1ccc(OCC(=O)Nc2cc(C)on2)cc1 | 0
25 | CC(=O)N1CCC(NCCc2ccccc2)CC1 | 0
26 | Cc1ccccc1CNc1nnnn1C | 0
27 | CC(=O)N1CCC(c2c[nH]c3ccccc23)CC1 | 0
28 | Cc1sc2ncnc(N(C)C)c2c1C | 0
29 | CS(=O)(=O)NCCc1ccc(F)cc1 | 0
30 | CC(C)n1cc(C(=O)O)nn1 | 0
31 | CS(=O)(=O)Nc1ccc(CN)cc1.Cl | 0
32 | COc1ccccc1N1CCN(CC#N)CC1 | 0
33 | CN(C)Cc1nc(C2(N)CCCC2)no1 | 0
34 | Nc1cccc(OCc2ccccc2)c1 | 0
35 | COc1ccc(NCc2ccccc2O)cc1 | 0
36 | Oc1ccccc1CN1CCc2ccccc2C1 | 0
37 | CS(=O)(=O)NC1(C(=O)O)CCCCC1 | 0
38 | Oc1ncc(NCCc2ccccc2)c(O)n1 | 0
39 | c1csc(CNCc2ccncc2)c1 | 0
40 | CCc1nnc(NC(=O)C(F)(F)F)s1 | 0

Nothing new here: two of the compounds above.
Row | Structure (SMILES) | NMR binding call
33 | CN(C)Cc1nc(C2(N)CCCC2)no1 | 0
34 | Nc1cccc(OCc2ccccc2)c1 | 0

Reference: the supplement of paper PMC8426693
